Source: PubChem BioAssay AID1794845 (National Center for Advancing Translational Sciences (NCATS), 2023)
Fewer than 10 of roughly 6,900 compounds were called active. Calls come from the whole dose curve; as a rule, active = well fitted curve in the direction sought with a large enough effect; inconclusive = small, poorly fitted or top-dose-only effect, or another doubt; inactive = no such curve, though single readings can be large or run the other way. The list shows a part of the results.

By UniProt entry, the sequences of proteins in these tests, tags left out. Where a name states a change or a piece, a line headed by the entry shows the natural chain unless it says otherwise.
UniProt C7C422: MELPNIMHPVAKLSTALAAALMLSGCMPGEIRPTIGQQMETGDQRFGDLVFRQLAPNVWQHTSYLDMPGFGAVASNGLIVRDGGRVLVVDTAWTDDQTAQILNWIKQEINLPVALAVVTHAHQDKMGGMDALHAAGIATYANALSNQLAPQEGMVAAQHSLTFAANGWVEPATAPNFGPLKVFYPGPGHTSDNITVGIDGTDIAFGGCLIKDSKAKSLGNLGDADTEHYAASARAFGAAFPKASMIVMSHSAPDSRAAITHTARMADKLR

target: Metallo-beta-lactamase type 2 (Klebsiella pneumoniae) (UniProt C7C422); test: qHTS to identify inhibitors of the New Delhi Metallo-beta-lactamase (NDM): primary screen against the NCATS Gemini Collection; settings: NDM-1 enzyme, meropenem hydrolysis, absorbance 300 nm; at 38.4 µM (top of the series) unless noted; note: % of control where 0% means no effect
How it was run: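 Meropenem hydrolysis (50 uM final) by 2 nM NDM-1 read as 300 nm absorbance after 30 min, following >30 min compound–enzyme preincubation in HEPES pH 7.0 with 1 uM ZnSO4 and 0.01% Tween20.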

Activity % (negative = inhibition), inactive:
CC(C)NC(=O)N1CCCC1c1noc(CCC(=O)NCC2CC2)n1 (centres undefined) -1.43%, N#Cc1ccc(CN2CC[C@H](c3nnc(Cc4ccccc4)o3)C2)cc1 -0.173% [at 57.5 µM], CC(NC(=O)CNC(=O)c1cccc(-c2ccc(C(F)(F)F)cc2)c1)c1ccc(F)cc1 (centres undefined) 0.817%, COc1nccnc1NC1CCN(C(=O)Cc2c(C)noc2C)CC1 11.3%, Cc1cc(-c2nc3ccncc3[nH]2)c(C)[nH]1 9.64% [at 77.1 µM], C[C@@H]1CN(C(=O)c2cnn(C)c2)CC[C@@]1(O)C1CCOCC1 10.5%, COc1ccc(C(=O)N2CC[C@H](c3nc4ccccc4n3C)C2)cc1OC 1.72% [at 57.5 µM], COc1cccc(-c2ccc(CN3CCCC(N[S+](=O)([O-])c4c(C)noc4C)C3)cc2)c1 (centres undefined) 3.42%, COc1cccc2c1OCC(C(=O)N1CCC(c3noc(C)n3)CC1)C2 (centres undefined) -5.57%, CC(C)NC(=O)C[C@@H]1C[C@H]2O[C@H](CNCc3ccccc3C(F)(F)F)[C@@H](O)[C@H]2O1 -2.63% [at 57.5 µM], C[C@]1(O)CCN(C(=O)c2ccc3c(c2)OCC(=O)N3)C[C@@H]1O 8.18%, Cc1cc(-c2cc3c(cn2)N(C)CCN(C)C3)ccn1 9.26% [at 77.1 µM], Cc1ccc(C(=O)N(CC2CCN(Cc3ccccc3F)CC2)CC2CCCO2)s1 (centres undefined) 0.978%, Cc1cn2nc(C(=O)N3CCC(NC(=O)COc4ccccc4)CC3)cc2c(=O)[nH]1 32%, CC1=C[C@@H](CNC(=O)CCC(=O)O)[C@H](C(C)C)C[C@H]1Cc1nc2ccncc2[nH]1 1.27% [at 57.5 µM], CSc1ccc(CNC(=O)C2(c3ccc(NS(C)(=O)=O)cc3)CCCCC2)cc1 1.83%, CC(C)(C)c1coc([C@@H]2COCCN2C2CCC2)n1 2.23% [at 77.1 µM], CN(CC1CCOC1)C(=O)c1ccco1 (centres undefined) 1.45%, O=C(NCCc1nc2ccccc2s1)[C@H]1CNC[C@@H](C(=O)N2CCOCC2)C1 3.68%, O=C(Cc1cccc(Cl)c1)N1CCC2(CN[S+](=O)([O-])c3cccnc3O2)C1 (centres undefined) 0.492%, CC1=Nc2cc(C(=O)NCCCN(C)C)ccc2Sc2ccc(F)cc21 32.1%, CCn1c(CO)nnc1C1CC(NC(=O)CCc2c(C)nn(C)c2C)C1 (centres undefined) -0.901%, Cc1cc(C2CCCN2C(=O)c2ccnn2C)on1 (centres undefined) 0.243%, CCC1COCCN1C(=O)c1coc(COc2ccc3c(c2)OCO3)n1 (centres undefined) 2.74%, O=C1NC2(CCCN(C(=O)Cc3ccccc3)C2)COc2ccccc21 (centres undefined) 12.9%, O=[S+]([O-])(CCC(F)(F)F)N1CCN(Cc2ccccc2-c2cccnc2)CC1 -7.3%, COc1cccc(-c2nc3cnccn3c2NCCC(=O)N2CCN(C(C)C)CC2)c1 1.46%, O=S(=O)(N[C@H]1CO[C@H]2[C@@H]1OC[C@@H]2n1cc(CC2CCCCC2)nn1)c1cccs1 4.48%, Cc1ccc([S+](=O)([O-])N2CCCC2C(=O)N2CCC(c3nc4ccncc4[nH]3)CC2)cc1 (centres undefined) -0.985%, CN(CC1CCCCO1)C(=O)c1coc(COc2ccc3c(c2)OCO3)n1 (centres undefined) -0.312%, O=C1NCCN2CC3(CCN(C(=O)C4(c5ccccc5)CC4)CC3)CC12 (centres undefined) 17.4%, CCOCCCNC(=O)CCc1nc(C2CCCN2C(=O)c2ccccc2)no1 (centres undefined) -1.05%, O=S(=O)(NCC1CCOCC1)c1cccc(F)c1 0.087%, Cc1noc(C)c1S(=O)(=O)N1CCCC(Cc2nncn2C(C)C)C1 (centres undefined) -1.61%, C=CCn1c(CN2CCC3(CC(=O)NC3=O)C2)nc2ccccc21 (centres undefined) 1.69%, Cc1ncoc1C(=O)N1CCC[C@H](n2c(=O)n(C)c3cccnc32)C1 8.16%, Cc1cnc(C2CCOCC2)n1C1CCNCC1 -11.8%, O=c1cc2c(nn1Cc1cccc(Br)c1)CCCCC2 -1.73%, COCCn1c(C)cnc1CCNC(=O)Cn1nc(C(F)(F)F)cc1C 5.86%, CC(C)N1C(=O)[C@@H]2[C@@H](CCN2C(=O)CCCC(=O)O)N(Cc2cccc(F)c2)C1=O 1.95% [at 57.5 µM], CN(CCC1CCOCC1)Cc1ccccc1OCC(O)CN1CCSCC1 (centres undefined) -0.827%, Cc1oc2ccn(C)c(=O)c2c1C(=O)NCc1cc(F)ccc1F 6.63%, O=C(N[C@@H]1CCN(C(=O)CCCn2cccn2)C[C@H]1O)c1ccccn1 -0.273%, CN1CCCN(S(=O)(=O)c2cn(C)cn2)c2ccccc21 12.5%, Cn1cnc(S(=O)(=O)N2c3ccccc3CC2c2noc(C3CCOCC3)n2)c1 (centres undefined) -16.3%, CCC(=O)N1CCC(CC(=O)N2CCOCC2)C1 (centres undefined) 13.6%, CC(C)NC(=O)NC1CC2(CCN(C(=O)Cc3ccc(O)cc3)CC2)c2ccccc21 (centres undefined) 2.61%, COc1ccccc1C(=O)N1CCCC(CN2CCC(C)CC2)CC1 (centres undefined) 6.6%, Cc1[nH]cnc1-c1nccn1CC(CO)Cc1cccs1 (centres undefined) 37.4%, O=C([C@@H]1C[C@@H](c2ccc(F)cc2)N([S+](=O)([O-])c2cccnc2)C1)N1CCOCC1 0.401% [at 57.5 µM], CS(=O)(=O)Nc1ccc(OCC(=O)N2CCN(c3ccc(F)cc3)CC2)nc1 0.186%, Cn1cc(CN2CCOc3cc([S+](=O)([O-])Nc4ccccc4)ccc3C2)cn1 16.2% [at 57.5 µM], CCn1ncc(NC(=O)Cn2ncc3cc(-c4ccccc4F)ccc32)n1 5.65%, CCCNC(=O)N1CC[C@@H]2[C@H]1C(=O)N(c1cccc(F)c1)C(=O)N2Cc1cccs1 5.06% [at 57.5 µM], COC(=O)[C@@H](C)NC(=O)[C@H]1CN(C(=O)c2cccnc2)CCN1S(=O)(=O)c1ccccc1 -0.332%, CC(=O)N1CCC(N[C@H]2C[C@@H](Cc3cc(CN(C)C)on3)C2(C)C)CC1 -1.28% [at 57.5 µM], Cc1cccc(-c2noc([C@@H]3Cc4nc[nH]c4CN3C(=O)COCC(=O)O)n2)c1 30.1% [at 57.5 µM], CCN(Cc1nc(C)no1)C(=O)c1cc(COc2cccc(F)c2)[nH]n1 0.559%, COCCn1c(C)cnc1CCNC(=O)c1cc(C)nn1C 45%, COc1cccc(-c2cccc(CN3CCCC3C(=O)N3CCCCC3)c2)c1 (centres undefined) 0.421%, Cc1nn(C)c(=O)n1C1CCN(S(=O)(=O)c2cccs2)CC1 -4.43%, C#CCNC(=O)C1CCc2nnc(C3CCN(C(=O)Nc4ccc(Cl)cc4)CC3)n21 (centres undefined) -1.28%, Cc1nncn1C1CN(S(=O)(=O)c2ccc3c(c2)CCC3)C1 5.53%, CC(C)CN1CCN(C(=O)c2ccc3c(c2)N(S(C)(=O)=O)CC3)CC1 -6.98%, CCNC(=O)N1CCC(Cc2ccc(C(=O)O)cc2)CC1 23.3%, Cc1noc(-c2ccc(C(C)(C)C)cc2)c1C(=O)NCCOc1ccccc1 9.89%, CCCn1c(C)cnc1C1CCN(S(=O)(=O)c2cn(C)cn2)C1 (centres undefined) -10.2%, CN(C)C[C@@H]1CN(c2ccncn2)C[C@H]1NC(=O)Cc1cccs1 9.72%, CCc1nc2c(=O)n(CC(=O)NC(C)c3ccc(F)cc3)nc(C)c2s1 (centres undefined) 5.59%, Cc1ccc2nc(CN(C)C(=O)C3CCC(=O)N(C4CCCCCC4)C3)[nH]c2c1 (centres undefined) -4.43%, Cc1noc(C)c1C(=O)N1CCC2(CC1)C(=O)NCN2C(=O)Cc1ccccc1 0.504%, c1ccc(-n2cncn2)c(Cn2ccnc2-c2cc3n(n2)CCCNC3)c1 22.1%, O=C(N[C@@H]1CN(c2ccncn2)C[C@H]1CO)C1CCCC1 1.33%, CCc1cc(C(=O)N2CCC(n3nccc3NC(=O)CCOc3ccccc3)CC2)no1 -0.148%, C[S+](=O)([O-])N1CCn2ncc(C(=O)NCc3ccc(Cl)nc3)c2C1 -3.12%, CC(C)CN1CC(C(=O)NCc2nc(-c3ccccc3)no2)CC1=O (centres undefined) 4.18%, CC(C)NC(=O)N[C@H]1CCN(C(=O)c2cnccn2)[C@@H]1C(=O)N[C@@H](CCCNC(=O)c1cnccn1)C(N)=O 8.17%, O=C(c1csc(Cc2ccccc2)n1)N1CCC2(CCCNC2)C1 (centres undefined) 43%, Cc1ccc(-c2ccccc2CN2CCN(C(=O)c3ccc(C(F)(F)F)cc3)CC2)cc1Cl 6.38%, NC(=O)[C@H](Cc1cccs1)NC(=O)[C@@H]1C[C@@H](NC(=O)c2cnccn2)CCN1C(=O)COCC(=O)O 6.79%, COCCNC(=S)N[C@H]1C[C@H]2C(=O)NC[C@@H](CCC(=O)NCc3ccccc3)N2C1 7.63% [at 57.5 µM], CSCC(=O)N1CC[C@H](NC(=O)Nc2cccc(SC)c2)[C@H]1C(=O)N[C@H](Cc1ccccc1)C(N)=O 4.18%, CN(CCc1ccccn1)[C@@H]1[C@H](O)[C@H](CO)O[C@@H]1CNC(=O)c1ccc(C(F)(F)F)cc1 6.63%, Cc1ccc(NC(=O)N2C[C@@H](F)C[C@H]2C(=O)N2CCCCC2)cc1F -4.55%
